Laboratory results taken from paper PMC6370850.
These are yes or no findings as the source states them, for the method shown. Binding seen in cells or lysates may run through a third protein.

Target: Flag-Stat3 ΔLD (mouse)
Assay: co-IP; Flag or Xpress immunoprecipitation of protein extracts from HEK293T cells co-transfected with Flag-Stat3 and Xpress-Hectd3 constructs (HA-Ub co-transfected in Fig. 9a); immunoblot

binding: no binding
B1: Xpress-Hectd3 (enzyme, UniProt Q3U487 1-861)
chain: MAGPGPGAALESPRQLLGRVRFLAEAARSLRAGLPLPAALAFVPREVLYKLYKDPAGPSRVLLPVWEAEGLGLRVGAVGAAPGTGSGPLRAARDSIELRRGACVRTTGEELCNGHGLWVKLTKEQLAEHLSDCSLDEGWLLVCRPAEGGARLVPIDTPDHLQRQQQLFGVDYRPVLRWEQVVDLTYSHRLGSRPQPAEAYTEAIQRLLYVPPTWTYECDEDLIHFLYDHLGKEDENLGSVKQYVESIDVSSYTEEFNVSCLTDSNADTYWESDGSQCQHWVRLTMKKGTIVKKLLLTVDTTDDNFMPKRVVVYGGEGDNLKKLSDVNIDETLIGDVCVLEDMTVHLPIIEIRIVECRDDGIDVRLRGVKIKSSRQRELGLNADLFQPASLVRYPRLEGTDPEVLYRRAVLLQRFIKILDSVLHHLVPAWDHTLGTFSEIKQVKQFLLLSRQRPSLVAQCLRDSESSKPSFMPRLYINRRLAMEHRACPSRDPACKNAVFTQVYEGLKPSDKYEKPLDYRWPMRYDQWWECKFIAEGIIDQGGGFRDSLADMSEELCPSSADTPVPLPFFVRTANQGNGTGEARDMYVPNPSCRDFAKYEWIGQLMGAALRGKEFLVLALPGFVWKQLSGEEVSWSKDFPAVDSVLVKLLEVMEGVDKETFEFKFGKELTFTTVLSDQQVVELIPGGTGIVVEYEDRSRFIQLVRKARLEESKEQVAAMQAGLLKVVPQAVLDLLTWQELEKKVCGDPEVTVDALRKLTRFEDFEPSDTRVQYFWEALNNFTNEDRSRFLRFVTGRSRLPARIYIYPDKLGYETTDALPESSTCSSTLFLPHYASAKVCEEKLRYAAYNCVAIDTDMSPWEE
